Values are the deposited “Percent Effect”, in %.
The controls that fix the scale are not given in the record; negative values are as filed.
The compounds are a random part of those screened.
Two or more numbers in one place are separate tests of the same structure; such repeats can differ widely.

Mtb cholesterol medium: 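Growth of Mycobacterium tuberculosis over 4 days (cholesterol / DPPC medium with tyloxapol); the read-out is not stated. Concentration: 50 µM. Higher reads as more growth inhibition (inferred: compounds with an IC50 in retests scored well above the rest). About 69,000 compounds were tested under these conditions; 0.54% (about 370) showed 50% or more at least once.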
Mtb glucose medium: 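Growth of Mycobacterium tuberculosis over 3 days (7H9 medium with glucose and tyloxapol); the read-out is not stated. Concentration: 50 µM. Higher reads as more growth inhibition (inferred: compounds with an IC50 in retests scored well above the rest). Size under these conditions: about 69,000 compounds, about 760 of them at 50% or above in at least one test.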

| compound | Mtb cholesterol medium | Mtb glucose medium |
|---|---|---|
| `O=C(O)C(F)(F)F.[H][C@@]12CN(C(=O)c3ccc(F)cc3)C[C@]1([H])OCCN2c1ncccn1` | 7.768 | -2.925 |
| `Cc1ccccc1C(O)CNC(=O)Cc1ccc(F)cc1` (stereo not given) | -3.616 | -7.986 |
| `CCOc1cc(C)nc(N2CCN(C(=O)c3ccc[nH]3)CC2)n1` | -4.262 | 10.76 |
| `CN(Cc1ccccc1CNC(=O)C1CNC(=O)N1)C1CCCCC1` (stereo not given) | 0.1335 | 2.716 |
| `CN(C)S(=O)(=O)N1CC[C@]2(C[C@@H](Oc3ncccc3F)CO2)C1.O=C(O)C(F)(F)F` | -6.1 | 1.238 |
| `CCCN1CCCC1c1ccc(C(=O)N2CCOCC2)s1` (stereo not given) | -6.16 & -9.873 | -6.061 & -4.322 |
| `O=C(c1cnc(O)cn1)N(Cc1ccsc1)CC1CCCO1` (stereo not given) | -7.54 | 14.89 |
| `N#Cc1ccccc1CC1CCCS(=O)(=O)C1` (stereo not given) | 10.48 | -31 |
| `Cc1cc(NCc2ccc(O)cc2)n2nc(C)cc2n1` | -19.72 | -18.85 |
| `Cc1ccc(CN2CCn3c(CNC(=O)c4cccn4C)cnc3C2)s1.O=C(O)C(F)(F)F` | -22.01 | -12.38 & 5.545 |
| `Cc1cnn(CCC(=O)N(CC2CN(C)CCO2)c2nccs2)c1` (stereo not given) | 11.24 | 23.76 |
| `Cc1cnc(C)c(N2CCN(CCCc3[nH]nc(C)c3C)CC2)n1` | 4.756 | 19.64 |
| `CN(Cc1ccc(CCC(C)(C)O)cc1)CC1(CO)CC1` | -14.16 | 5.724 |
| `CSCC(=O)N(C)Cc1cnn(-c2ccc(F)cc2)c1` | -33.56 | 6.611 |
| `CCOC(=O)c1n[nH]cc1CN1CCOC(Cc2ccccc2)C1` (stereo not given) | -6.541 | 5.965 & -2.341 |
| `CN1CCN(Cc2cn3c(n2)CN(Cc2cccc(F)c2)CC3)CC1.O=C(O)C(F)(F)F.O=C(O)C(F)(F)F.O=C(O)C(F)(F)F` | -6.91 | -1.631 |
| `Cc1ccc(-c2nc(CN(Cc3cccs3)CC3CCCO3)no2)cc1` (stereo not given) | -10.82 | 21.81 |
| `COc1ccc(C)cc1CN1CCn2cccc2C1C` (stereo not given) | 41.51 & 27.02 | 51.79 |
| `Cc1cnn(CCNCc2csc(-c3ccccc3)n2)c1` | 11.37 | 14.81 |
| `CCN(CC)C1(Cc2cc(CC(C)C)on2)COC1` | 0.2625 | 2.731 & -7.675 |
| `O=C1C(NS(=O)(=O)c2cc(F)cc(F)c2)CCN1Cc1ccccc1` (stereo not given) | 8.96 | 12.09 |
| `COCCn1ccc(=O)c(OCC(=O)Nc2ccc(OC)c(Cl)c2)c1C` | 13.02 | 22.16 |
| `CC(C)c1ccc2c(c1)C1(CC(=O)Nc3[nH]ncc31)C(=O)N2C` (stereo not given) | -10.65 | -2.191 |
| `COc1ccc(CNC[C@H]2COCc3nc4cccnc4n32)cn1` | 13.81 | 17.65 & -5.853 |
| `CC(CNC(=O)c1cccnc1O)Cn1cccn1` (stereo not given) | -30.54 | -12.26 |
| `CCCc1nnc(N[C@H](C)c2ccc(OC)cc2)o1` | 23.41 | 30.82 & 19.61 |
| `CN(C)C(=O)N1CCC2(CC1)CCN(c1ncccn1)C2.O=C(O)C(F)(F)F` | -6.987 | 4.336 |
| `Cc1nc(CCCNC(=O)c2c(F)cccc2Br)n[nH]1` | -29.64 | -6.112 |
| `Cc1cn2c(n1)CCC(NC(=O)COCCOc1ccccc1)C2` (stereo not given) | -9.025 & 7.113 | 17.39 |
| `O=C(O)C(F)(F)F.[H][C@@]12CC(COCc3cccnc3)C[C@@]1([H])N(C(=O)N(C)C)CCO2` (stereo not given in full) | -12.72 | -11.83 |
| `O=C(O)C(F)(F)F.[H][C@@]12COC[C@]1(CNC(=O)COC)CN(Cc1ccc3c(c1)OCO3)C2` | -1.843 | 17.5 |
| `CN(C(=O)c1ccc[nH]1)C1CCC(NC(=O)OC(C)(C)C)CC1` (stereo not given) | 2.644 | -1.562 |
| `CN(C)c1cccc(C(=O)N2CCCC2c2ncc3c(n2)CCNC3)c1.Cl` (stereo not given) | -12.33 | 24.56 |
| `COc1ccc(OCC(=O)NC(C)c2ccccc2)c(C(=O)O)c1` (stereo not given) | -15.81 | -8.442 |
| `COCc1cc(N(C)Cc2cc(C(C)(C)C)n[nH]2)ncn1` | 4.988 | 9.522 & 3.028 |
| `Cc1cnn(CC2CCCN2Cc2cc(=O)n3ccccc3n2)c1` (stereo not given) | 10.56 | 7.891 |
| `Cc1cnn(CC(C)NCc2c(C)nn(Cc3ccccc3)c2C)c1` (stereo not given) | 0.9046 | -38.99 |
| `O=C(O)C(c1ccc2c(c1)OCCO2)N1CCCCCC1` (stereo not given) | -27.16 | -0.9277 |
| `CCOCC(=O)N1CCOCC2(CCN(c3ncccn3)C2)C1.O=C(O)C(F)(F)F` (stereo not given) | 14.35 | -1.231 |
| `COCCN1CCC(NCc2c(C(C)C)nn(C)c2N(C)C)CC1` | -14.73 | -10.43 & -5.267 |
| `O=C(NCCCN1CCOCC1)c1ccc(Cl)cc1Cl` | 0.5086 | 21.82 |
| `COc1ccc(/C=C/CN2CCC3(CC2)CN(C)C(=O)O3)cc1` | 3.719 | 33.4 |
| `CCc1ccc(CN2CCN(c3ccc(Cl)nn3)CC2)nc1` | 3.446 | 17.21 |
| `CN(Cc1nnc(C2CC2)n1C)C1CCN(Cc2ccc(F)cc2)C1` (stereo not given) | 0.6707 | 16.49 |
| `Cn1cc(C(=O)N2CCCC(C(=O)CCc3ccccc3)C2)cn1` (stereo not given) | 28.49 | 17.43 |
| `Cn1c(N)nnc1SCc1c(F)cccc1Br` | 4.823 | -2.468 & -4.231 |
| `Cc1ccccc1C1(CNC(=O)NCCc2nnc3n2CCC3)CC1` | -7.124 | -0.2272 & 10.23 |
| `COc1cccc(N2CCN(C(=O)C(O)CC(C)C)CC2=O)c1` (stereo not given) | -14.64 | -4.612 |
| `Cc1nc(C)n(CC2CN(Cc3cccc(C(N)=O)c3)CCO2)n1` (stereo not given) | -7.487 & -1.138 | -5.315 |
| `O=C(CCc1ccsc1)NS(=O)(=O)Cc1ccon1` | -0.6737 | -6.393 |
| `CC(C)c1noc(CN(Cc2ccccc2)C2CC2)n1` | -15.14 | 6.034 |
| `CS(=O)(=O)Nc1cccc(CNC(=O)CCc2ccsc2)c1` | -12.46 | -6.108 |
| `CSCCc1n[nH]c2c1CN(S(=O)(=O)c1c(C)nn(C)c1C)CC2` | -14.85 | 33.09 |
| `O=C(Nc1cccc(OCC(F)F)n1)c1ccncc1` | -14.69 | -12.39 |
| `O=C(CN1CCSCC1c1ccccc1)N1CCCC1` (stereo not given) | -26.97 | -8.809 |
| `Cn1cc(C(=O)NC2CCCC2)c(-c2cccnc2)n1` | -4.251 | -3.728 |
| `Cc1cc(C)c2c(NC(C)c3nncn3C3CCCC3)ncnc2n1` (stereo not given) | -14.29 | -13.38 |
| `COC(=O)CNC(=O)c1c(-n2cnnn2)sc2c1CCCC2` | -7.012 | 16.93 |
| `COc1cccc(CNC(CN2CCN(C)CC2)c2ccccc2)c1` (stereo not given) | 10.83 | 15.95 |
| `Cn1cnnc1S(=O)(=O)C1CCN(S(=O)(=O)c2c(Cl)cccc2Cl)CC1` | -1.856 | -0.2316 & -20.93 |
| `O=C(N1CCOCC1CO)C1(c2cccs2)CCCC1` (stereo not given) | -1.56 | -13.42 |
| `COc1c(CNCc2nnc3n2CCCCC3)c(C(C)C)nn1C.Cl` | -0.8553 | -3.144 |
| `CC(C)N1CCN(CCn2cnc3c(F)cccc3c2=O)CC1` | -20.4 | 6.514 |

The first 4 entries again:

{"compound": "O=C(O)C(F)(F)F.[H][C@@]12CN(C(=O)c3ccc(F)cc3)C[C@]1([H])OCCN2c1ncccn1", "Mtb cholesterol medium": 7.768, "Mtb glucose medium": -2.925}
{"compound": "Cc1ccccc1C(O)CNC(=O)Cc1ccc(F)cc1", "stereo": "stereo not given", "Mtb cholesterol medium": -3.616, "Mtb glucose medium": -7.986}
{"compound": "CCOc1cc(C)nc(N2CCN(C(=O)c3ccc[nH]3)CC2)n1", "Mtb cholesterol medium": -4.262, "Mtb glucose medium": 10.76}
{"compound": "CN(Cc1ccccc1CNC(=O)C1CNC(=O)N1)C1CCCCC1", "stereo": "stereo not given", "Mtb cholesterol medium": 0.1335, "Mtb glucose medium": 2.716}

Source: ChEMBL document CHEMBL3988442, “University of Dundee, Small-Polar-MMV Screening Library” (2021).